We go through three substances from EP3046573B1 (Zealand Pharma A/S, priority 2013, dated 2015).

Some peptides are written in HELM: one residue between dots, names in brackets for other building blocks, links after the first $.

A short description of data set [1]: general procedure: Fmoc solid-phase peptide synthesis; TentaGel S Ram resin (0.25 mmol/g); Tentagel S PHB-Thr(tBu) resin (0.24 mmol/g) for Compound 5; COMU. To be noted: analytical HPLC and MS.
The nature of data set [2]: general procedure: Fmoc solid-phase peptide synthesis; Tentagel S PHB-Thr(tBu) resin; COMU. To be noted: whole synthesis, analytical HPLC and MS, scale of the general procedure 1 g resin, 0.25 mmol/g.

Consider “PEPTIDE1{[19CD].[gE].R.[Cx].N.T.A.T.[Cx].A.T.Q.R.[DLeu].A.E.F.L.H.H.S.S.N.N.F.[Sar].A.[NMeI].L.S.S.T.N.V.G.S.N.T.P.[am]}$PEPTIDE1,PEPTIDE1,4:R3-9:R3$$$V2.0”, for which the “final HPLC purity” value in data set [1] (whole synthesis, scale of the general procedure 1 g resin, 0.25 mmol/g) is 80%.
For “PEPTIDE1{[19CD].[gE].A.[Cx].N.T.A.T.[Cx].A.T.Q.R.L.A.E.F.L.H.H.S.S.N.N.F.[Sar].A.[NMeI].L.S.S.T.N.V.G.S.N.T.P.[am]}$PEPTIDE1,PEPTIDE1,4:R3-9:R3$$$V2.0”, in data set [2], the “final HPLC purity” value came out at 90%.
Take “PEPTIDE1{[19CD].[gE].[Har].[Cx].N.T.A.T.[Cx].A.T.Q.R.L.A.E.F.L.H.H.S.S.N.N.F.[Sar].A.[NMeI].L.S.S.T.N.V.G.S.N.T.P.[am]}$PEPTIDE1,PEPTIDE1,4:R3-9:R3$$$V2.0”: in data set [1] (late stage modification step), the “final purity (method not given)” value came out at 90%.
